Measured values taken from patent US6953656B2 (Massachusetts Institute of Technology, priority 2000, dated 2005).

Assay: peptide made by a vendor
Conditions: whole synthesis, MASS spectroscopy

Substance: n-CGGKETAAAKFERQHMDS-c (S18 peptide)
- final ms purity: nearly 100%
